For one data set, the system named is lysosomes. Kind of data set: Confocal co-localization of probe/CO-1 staining with Lysotracker. In kind it is cell-based. Conditions: for lysosome staining after 5 h chase: 5 h incubation in fresh medium after the probe pulse, prior to CO-1.
In a further data set the test system is mitochondria. Kind of data set: Confocal co-localization of probe/CO-1 staining with Mitotracker. In kind it is cell-based. Conditions: for Manders' M1 coefficient / Manders' M2 coefficient / Pearson's (P) coefficient: probe 5 µM 4 h. As to the method:
Cells were seeded at 1 × 10^5 cells/mL on glass-bottom plates and allowed to adhere for 24 h. For golgi staining, cells were incubated with 40 µL/well of CellLight Golgi-RFP BacMam 2.0 for 24 h. Medium was replaced with fresh medium containing RBM5-177, RBM5-019, RBM2-37 or RBM2-31 (5 µM final concentration) and cells were incubated for 20 min at 37 °C. After this time, the medium was replaced with fresh medium containing CO-1 (1 µM final concentration), and cells were incubated for 10 min. Then cells were washed 3 times with DMEM for 5 min at 37 °C, 75 nM LysoTracker Red DND-99 or 75 nM Mitotracker in phenol red-free DMEM was added to stain lysosomes or mitochondria, and cells were kept in the incubator for microscope analysis. Staining was viewed with a Zeiss LSM 880 confocal microscope or Leica TCS SP8-Hyvolution. Image analysis was performed using Fiji software.^[7] To measure the Manders's and Pearson's coefficients a threshold including organelles and discarding the background was set. Co-localization coefficients were measured using the JaCoP plugin (S. Bolte et al. J. Microsc. 2006, 224, 213-232) on the different stacks of images (at least n=4) with each stack containing 3-10 cells.

The mark [1] stands for this setting: Fig. 2A/C, A549 cells, probe 5 µM 20 min, CO-1 1 µM 10 min, no chase.
[2] abbreviates: Fig. 2B/D, A549 cells, probe 5 µM 20 min, then medium for 5 h before CO-1.
Where [3] appears, read: Fig. 3A, FD and FD/AC cells (cell type of the coefficients not specified), probe 5 µM 4 h.
Where [4] appears, read: Fig. 3B, A375 cells +Dox or -Dox (not specified), probe 5 µM.
The mark [5] stands for this setting: Fig. 4, A375/+Dox, probe 5 µM 4 h, with FB1 (100 µM, 24 h).
Setting [6] is: Fig. 4, A375/+Dox, probe 5 µM 4 h, with vehicle.
[7] abbreviates: Fig. 8, A375/+Dox with FB1 (100 µM, 24 h).
The mark [8] stands for this setting: Fig. 7, A375/+Dox with SOCLAC (5 µM, 1 h), probe 5 µM 20 min.
Where [9] appears, read: Fig. 7, A375/+Dox with vehicle, probe 5 µM 20 min.
Where [10] appears, read: Fig. 7, A375/-Dox with vehicle, probe 5 µM 20 min.

Values joined by “and” are separate entries in the source; they are usually repeats but may differ in a detail not shown here. Equal entries are not always repeated.

As for `CCCCCCCC(=O)N[C@@H](C)[C@H](O)CCCCCCCCCCCCN=[N+]=[N-]` [RBM5-177, N-((2S,3R)-15-azido-3-hydroxypentadecan-2-yl)octanamide], the “lysosome staining after 5 h chase” value in the data set with lysosomes (A549 cells) is given as “staining remained stable with high co-localization with Lysotracker”. Further, the “Manders' M1 coefficient” value came out at 0.866 with lysosomes (setting [1]); 0.822 in the data set on lysosomes (setting [2]); 0.631 with lysosomes (setting [3]); 0.723 in the data set with lysosomes (setting [4]); 0.717 in the data set on lysosomes (setting [5]); 0.791 in the data set with lysosomes (setting [6]). Also, the “Manders' M1 coefficient” value is given as 0.059 in the data set with mitochondria (setting [7]) and 0.194 with mitochondria (Fig. 8, A375/+Dox with vehicle). For the same compound, the “Manders' M2 coefficient” value in the data set on lysosomes (setting [1]) is listed as 0.744; in the data set with lysosomes (setting [2]) it was 0.711; in the data set on lysosomes (setting [3]), 0.760; with lysosomes (setting [4]) it was 0.713; with lysosomes (setting [5]) it was 0.761; with lysosomes (setting [6]) it was 0.778. Besides, the “Manders' M2 coefficient” value in the data set on mitochondria (setting [7]) worked out at 0.043; with mitochondria (Fig. 8, A375/+Dox with vehicle) it was 0.697. In addition, the “Pearson's (P) coefficient” value in the data set on lysosomes (setting [1]) worked out at 0.802; in the data set with lysosomes (setting [2]), 0.746; in the data set with lysosomes (setting [3]), 0.725; in the data set on lysosomes (setting [4]), 0.754; in the data set with lysosomes (setting [5]), 0.841; with lysosomes (setting [6]), 0.816. Besides, the “Pearson's (P) coefficient” value in the data set with mitochondria (setting [7]) stood at 0.224; in the data set on mitochondria (Fig. 8, A375/+Dox with vehicle), 0.355.
Regarding `C[C@H](N)[C@H](O)CCCCCCCCCCCCN=[N+]=[N-]` [RBM5-019, (2S,3R)-2-Amino-15-azidopentadecan-3-ol], in the data set with lysosomes (A549 cells), the “lysosome staining after 5 h chase” value is given as “largely remained in the lysosome after the 5 h chase”. The “Manders' M1 coefficient” value in the data set on lysosomes (setting [1]) was 0.670; with lysosomes (setting [2]) it was 0.735; in the data set with lysosomes (setting [8]) it was 0.810; in the data set on lysosomes (setting [9]) it was 0.836; in the data set on lysosomes (setting [10]), 0.829; with mitochondria (Fig. 8, A375/+Dox with vehicle) it was 0.179. Also, the “Manders' M2 coefficient” value stood at 0.774 with lysosomes (setting [1]); 0.688 in the data set with lysosomes (setting [2]); 0.795 in the data set on lysosomes (setting [8]); 0.730 in the data set on lysosomes (setting [9]); 0.733 with lysosomes (setting [10]). Besides, the “Pearson's (P) coefficient” value with lysosomes (setting [1]) was 0.713; in the data set with lysosomes (setting [2]), 0.762; with lysosomes (setting [8]), 0.863; in the data set on lysosomes (setting [9]) it was 0.869; in the data set with lysosomes (setting [10]) it was 0.845; with mitochondria (Fig. 8, A375/+Dox with vehicle), 0.298 and 0.355. Besides, in the data set with mitochondria (RBM5-19/CO-1 labelling system, all conditions tested (Fig. 8)), the mitochondria staining entry is “no mitochondria staining”.

The values above are taken from EP3925949A1, “AZIDO COMPOUNDS AND METHOD FOR MONITORING ACID CERAMIDASE ACTIVITY IN INTACT CELLS USING THEM” (Consejo Superior de Investigaciones Científicas (CSIC), priority 2020, dated 2021).
